{
  "source": "patent US20240165282A1",
  "about": "(STARGET PHARMA LTD., priority 2021, published 2024)",
  "experiment": "general procedure: Fmoc solid-phase peptide synthesis; Rink amide MBHA; DIC/HOBt; PyBroP/DIEA for repeated Arg coupling",
  "settings": "whole synthesis, scale 0.231 mmol",
  "data": [
    {"substance": "H-D-Phe^1-Arg^2-Cys^3-Phe^4-D-Trp^5-Lys^6-Thr^7-Phe^8-NTEG^9-NH^2 (cyclo 3-9)", "values": [
      {"measurement": "crude mass", "value": 182, "unit": "mg"}
    ]}
  ]
}
